Results from PMC11811199 (EMBO Reports, 2024).
These are yes or no findings as the source states them, for the method shown. In cells and extracts the contact can be indirect. A yes stands for co-enrichment or nearness to the bait. Other partners may have been found. Sequences can lack the tags named with a protein.

The chains behind the UniProt entries cited, without tags or fusion partners.
UniProt P19474: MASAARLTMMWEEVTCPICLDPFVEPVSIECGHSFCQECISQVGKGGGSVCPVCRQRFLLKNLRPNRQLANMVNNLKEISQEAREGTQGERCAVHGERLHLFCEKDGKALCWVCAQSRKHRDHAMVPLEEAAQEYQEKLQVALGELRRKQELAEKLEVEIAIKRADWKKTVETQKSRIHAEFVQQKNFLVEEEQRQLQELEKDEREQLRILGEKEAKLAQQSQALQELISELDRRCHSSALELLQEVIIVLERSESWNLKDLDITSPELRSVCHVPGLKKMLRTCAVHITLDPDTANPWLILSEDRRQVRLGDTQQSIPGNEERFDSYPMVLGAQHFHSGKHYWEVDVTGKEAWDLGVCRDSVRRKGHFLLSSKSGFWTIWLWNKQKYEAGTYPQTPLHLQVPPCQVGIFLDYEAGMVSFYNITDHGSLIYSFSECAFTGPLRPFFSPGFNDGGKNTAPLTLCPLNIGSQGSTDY

What was measured:
[1] = molecular target: T1, DYRK4-Flag (UniProt Q9NR20); experiment: affinity purification with mass spectrometry
T1 sequence: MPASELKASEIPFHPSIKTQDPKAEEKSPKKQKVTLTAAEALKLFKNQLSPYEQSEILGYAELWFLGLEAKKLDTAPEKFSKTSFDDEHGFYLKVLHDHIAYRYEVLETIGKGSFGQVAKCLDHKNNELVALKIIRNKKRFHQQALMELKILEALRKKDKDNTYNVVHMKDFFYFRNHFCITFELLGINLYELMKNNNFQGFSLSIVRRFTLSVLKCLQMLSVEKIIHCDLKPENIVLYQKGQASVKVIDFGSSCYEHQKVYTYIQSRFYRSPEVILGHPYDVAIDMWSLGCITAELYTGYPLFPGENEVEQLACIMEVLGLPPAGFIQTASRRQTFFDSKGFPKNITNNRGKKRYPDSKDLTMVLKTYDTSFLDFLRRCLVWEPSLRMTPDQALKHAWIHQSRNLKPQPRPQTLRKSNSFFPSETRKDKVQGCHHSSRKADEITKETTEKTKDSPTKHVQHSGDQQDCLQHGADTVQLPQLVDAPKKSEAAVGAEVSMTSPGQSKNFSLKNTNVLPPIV

[2] = molecular target: T1, DYRK4-Flag; experiment: affinity purification with mass spectrometry; HEK293T cells transfected with control or DYRK4-Flag for 24 h; lysate purified with Flag beads, SDS-PAGE, Coomassie blue; bands cut and analysed by MS

TRIM21 (from UniProt P19474 1-475)
binding [1]: binds

B1: TRIM4 (protein, UniProt Q9C037 1-500)
chain: MEAEDIQEELTCPICLDYFQDPVSIECGHNFCRGCLHRNWAPGGGPFPCPECRHPSAPAALRPNWALARLTEKTQRRRLGPVPPGLCGRHWEPLRLFCEDDQRPVCLVCRESQEHQTHAMAPIDEAFESYRTGNFDIHVDEWKRRLIRLLLYHFKQEEKLLKSQRNLVAKMKKVMHLQDVEVKNATQWKDKIKSQRMRISTEFSKLHNFLVEEEDLFLQRLNKEEEETKKKLNENTLKLNQTIASLKKLILEVGEKSQAPTLELLQNPKEVLTRSEIQDVNYSLEAVKVKTVCQIPLMKEMLKRFQVAVNLAEDTAHPKLVFSQEGRYVKNTASASSWPVFSSAWNYFAGWRNPQKTAFVERFQHLPCVLGKNVFTSGKHYWEVESRDSLEVAVGVCREDVMGITDRSKMSPDVGIWAIYWSAAGYWPLIGFPGTPTQQEPALHRVGVYLDRGTGNVSFYSAVDGVHLHTFSCSSVSRLRPFFWLSPLASLVIPPVTDRK
binding [1]: binds

B2: RNF138 (protein, UniProt Q8WVD3 1-245)
chain: MAEDLSAATSYTEDDFYCPVCQEVLKTPVRTTACQHVFCRKCFLTAMRESGAHCPLCRGNVTRRERACPERALDLENIMRKFSGSCRCCAKQIKFYRMRHHYKSCKKYQDEYGVSSIIPNFQISQDSVGNSNRSETSTSDNTETYQENTSSSGHPTFKCPLCQESNFTRQRLLDHCNSNHLFQIVPVTCPICVSLPWGDPSQITRNFVSHLNQRHQFDYGEFVNLQLDEETQYQTAVEESFQVNI
binding [1]: binds

B3: TRIM23 (protein, UniProt P36406 1-574)
chain: MATLVVNKLGAGVDSGRQGSRGTAVVKVLECGVCEDVFSLQGDKVPRLLLCGHTVCHDCLTRLPLHGRAIRCPFDRQVTDLGDSGVWGLKKNFALLELLERLQNGPIGQYGAAEESIGISGESIIRCDEDEAHLASVYCTVCATHLCSECSQVTHSTKTLAKHRRVPLADKPHEKTMCSQHQVHAIEFVCLEEGCQTSPLMCCVCKEYGKHQGHKHSVLEPEANQIRASILDMAHCIRTFTEEISDYSRKLVGIVQHIEGGEQIVEDGIGMAHTEHVPGTAENARSCIRAYFYDLHETLCRQEEMALSVVDAHVREKLIWLRQQQEDMTILLSEVSAACLHCEKTLQQDDCRVVLAKQEITRLLETLQKQQQQFTEVADHIQLDASIPVTFTKDNRVHIGPKMEIRVVTLGLDGAGKTTILFKLKQDEFMQPIPTIGFNVETVEYKNLKFTIWDVGGKHKLRPLWKHYYLNTQAVVFVVDSSHRDRISEAHSELAKLLTEKELRDALLLIFANKQDVAGALSVEEITELLSLHKLCCGRSWYIQGCDARSGMGLYEGLDWLSRQLVAAGVLDVA
binding [2]: binds
